{"source": "PubChem BioAssay AID504784 (Drosophila RNAi Screening Center, 2011)", "assay": "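Search for regulators of lipid droplet storage in oleate-fed fly cells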 (primary screen)", "system": "Drosophila Kc167 embryonic cells", "knock-down reagent": "long dsRNA against Drosophila genes, about 250 ng dsRNA per well", "time to read-out": "4 days", "treatment": "cells fed 400 µM oleic acid bound to BSA", "read-out": "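Microscope images give a droplet-to-nucleus area ratio, taken as log and converted to a screen-wide B-score; higher values mean greater lipid storage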", "direction": "droplet/nuclear area B-score: higher = more stored lipid (overstorage)", "note": "In all, the deposit lists about 17,000 reagents; below is an unselected part of those that have a named target and a result. 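Each column is one replicate's B-score; the combined score over replicates was not deposited, so single values may mislead.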 A plus sign joins genes that one reagent is predicted to hit. Reagent sequences are not shown."}
{"predicted target":"spirit","amplicon":"DRSC18202","droplet/nuclear area B-score, replicate 1":0.55,"droplet/nuclear area B-score, replicate 2":0.21,"droplet/nuclear area B-score, replicate 3":-1.07}
{"predicted target":"Epac","amplicon":"DRSC04969","droplet/nuclear area B-score, replicate 1":1.25,"droplet/nuclear area B-score, replicate 2":3.31}
{"predicted target":"Epac","amplicon":"DRSC04996","droplet/nuclear area B-score, replicate 1":1.13,"droplet/nuclear area B-score, replicate 2":0.602}
{"predicted target":"Epac","amplicon":"DRSC04997","droplet/nuclear area B-score, replicate 1":1.52,"droplet/nuclear area B-score, replicate 2":1.6}
{"predicted target":"Hel89B","amplicon":"DRSC16700","droplet/nuclear area B-score, replicate 1":-0.772,"droplet/nuclear area B-score, replicate 2":-0.211,"droplet/nuclear area B-score, replicate 3":0.322}
{"predicted target":"Hel89B","amplicon":"DRSC21575","droplet/nuclear area B-score, replicate 1":1.74,"droplet/nuclear area B-score, replicate 2":-0.55}
{"predicted target":"Oseg6","amplicon":"DRSC06066","droplet/nuclear area B-score, replicate 1":-1.73,"droplet/nuclear area B-score, replicate 2":4.72}
{"predicted target":"CG8646","amplicon":"DRSC07230","droplet/nuclear area B-score, replicate 1":-1.04,"droplet/nuclear area B-score, replicate 2":-1.12}
{"predicted target":"Sik2","amplicon":"DRSC18522","droplet/nuclear area B-score, replicate 1":0.574,"droplet/nuclear area B-score, replicate 2":0.0934}
{"predicted target":"wac","amplicon":"DRSC08349","droplet/nuclear area B-score, replicate 1":0.23,"droplet/nuclear area B-score, replicate 2":-1.54}
{"predicted target":"CG32547","amplicon":"DRSC19263","droplet/nuclear area B-score, replicate 1":0.401,"droplet/nuclear area B-score, replicate 2":0.757}
{"predicted target":"CG32547","amplicon":"DRSC19474","droplet/nuclear area B-score, replicate 2":-2.26}
{"predicted target":"CG32547","amplicon":"DRSC19626","droplet/nuclear area B-score, replicate 1":-2.14,"droplet/nuclear area B-score, replicate 2":-1.14}
{"predicted target":"Gnmt","amplicon":"DRSC15987","droplet/nuclear area B-score, replicate 1":3.18,"droplet/nuclear area B-score, replicate 2":2.94}
{"predicted target":"muskelin","amplicon":"DRSC07273","droplet/nuclear area B-score, replicate 1":-0.446,"droplet/nuclear area B-score, replicate 2":-0.198}
{"predicted target":"CG3368","amplicon":"DRSC15485","droplet/nuclear area B-score, replicate 1":3.69,"droplet/nuclear area B-score, replicate 2":1.36}
{"predicted target":"Cdc50","amplicon":"DRSC20224","droplet/nuclear area B-score, replicate 1":0.812,"droplet/nuclear area B-score, replicate 2":3.94}

Targets above whose gene name begins with E or e (3):
{"predicted target":"Epac","amplicon":"DRSC04969","droplet/nuclear area B-score, replicate 1":1.25,"droplet/nuclear area B-score, replicate 2":3.31}
{"predicted target":"Epac","amplicon":"DRSC04996","droplet/nuclear area B-score, replicate 1":1.13,"droplet/nuclear area B-score, replicate 2":0.602}
{"predicted target":"Epac","amplicon":"DRSC04997","droplet/nuclear area B-score, replicate 1":1.52,"droplet/nuclear area B-score, replicate 2":1.6}

Next entries follow.
{"predicted target":"CG3092","amplicon":"DRSC04336","droplet/nuclear area B-score, replicate 1":0.838,"droplet/nuclear area B-score, replicate 2":0.703}
{"predicted target":"Tomosyn","amplicon":"DRSC19365","droplet/nuclear area B-score, replicate 1":-0.391,"droplet/nuclear area B-score, replicate 2":-1.5,"droplet/nuclear area B-score, replicate 3":0.288}
{"predicted target":"Tomosyn","amplicon":"DRSC19692","droplet/nuclear area B-score, replicate 1":1.39,"droplet/nuclear area B-score, replicate 2":0.0445,"droplet/nuclear area B-score, replicate 3":-0.572}
{"predicted target":"Tomosyn","amplicon":"DRSC19782","droplet/nuclear area B-score, replicate 1":-0.492,"droplet/nuclear area B-score, replicate 2":0.303,"droplet/nuclear area B-score, replicate 3":-1.05}
{"predicted target":"Tomosyn","amplicon":"DRSC19842","droplet/nuclear area B-score, replicate 1":1.54,"droplet/nuclear area B-score, replicate 2":1.26,"droplet/nuclear area B-score, replicate 3":-0.822}
{"predicted target":"Mlc1","amplicon":"DRSC16740","droplet/nuclear area B-score, replicate 1":2.12,"droplet/nuclear area B-score, replicate 2":-0.226}
{"predicted target":"CG15096","amplicon":"DRSC06525","droplet/nuclear area B-score, replicate 1":-1.21}
{"predicted target":"Tmem131","amplicon":"DRSC07154","droplet/nuclear area B-score, replicate 1":-0.258,"droplet/nuclear area B-score, replicate 2":2.16}
{"predicted target":"BaraA1 + BaraA2","amplicon":"DRSC05417","droplet/nuclear area B-score, replicate 1":1.53,"droplet/nuclear area B-score, replicate 2":0.815}
{"predicted target":"CG17612","amplicon":"DRSC00505","droplet/nuclear area B-score, replicate 1":0.268,"droplet/nuclear area B-score, replicate 2":-2.89}
{"predicted target":"kni","amplicon":"DRSC11891","droplet/nuclear area B-score, replicate 1":-2.49,"droplet/nuclear area B-score, replicate 2":0.243}
{"predicted target":"kni","amplicon":"DRSC23093","droplet/nuclear area B-score, replicate 1":-1.11,"droplet/nuclear area B-score, replicate 2":0.111}
{"predicted target":"Su(var)3-7","amplicon":"DRSC16872","droplet/nuclear area B-score, replicate 1":-0.216,"droplet/nuclear area B-score, replicate 2":-0.471}
{"predicted target":"ND-B14.5AL","amplicon":"DRSC11795","droplet/nuclear area B-score, replicate 1":-0.677,"droplet/nuclear area B-score, replicate 2":0.0726}
{"predicted target":"CG3513","amplicon":"DRSC00608","droplet/nuclear area B-score, replicate 1":0.149,"droplet/nuclear area B-score, replicate 2":0.14}
{"predicted target":"Hat1","amplicon":"DRSC12298","droplet/nuclear area B-score, replicate 1":-0.586,"droplet/nuclear area B-score, replicate 2":-1.09}
{"predicted target":"egl","amplicon":"DRSC04682","droplet/nuclear area B-score, replicate 1":1.3,"droplet/nuclear area B-score, replicate 2":0.533}
{"predicted target":"Sirt6","amplicon":"DRSC16010","droplet/nuclear area B-score, replicate 1":0.357,"droplet/nuclear area B-score, replicate 2":-0.195}
{"predicted target":"CG4766","amplicon":"DRSC17736","droplet/nuclear area B-score, replicate 1":-0.0112,"droplet/nuclear area B-score, replicate 2":-0.371}
{"predicted target":"Lnk","amplicon":"DRSC16729","droplet/nuclear area B-score, replicate 1":-0.102}
{"predicted target":"CanB","amplicon":"DRSC18449","droplet/nuclear area B-score, replicate 1":2.62,"droplet/nuclear area B-score, replicate 2":1.5}
{"predicted target":"saturn","amplicon":"DRSC09303","droplet/nuclear area B-score, replicate 1":0.0253,"droplet/nuclear area B-score, replicate 2":0.0419}
{"predicted target":"CG15366 (retired record)","amplicon":"DRSC18039","droplet/nuclear area B-score, replicate 1":0.132,"droplet/nuclear area B-score, replicate 2":-1.59}
